Assay results from patent publication US4551273A, “Analgesic peptide and process for the preparation thereof” (Eisai Co., Ltd., priority 1983, dated 1985).

Columns and labels:
mouse vas deferens = experiment: Assay with mouse vas deferens (inhibition of electrically stimulated contraction); set-up: species or system isolated tissue; details: concentration required to decrease electrically stimulated contraction to 50%, read-out: IC50, Method (B)
Method: (B) Assay with mouse vas deferens
This assay was carried out according to the method reported by Hughes et al. A mature male mouse was decapitated and phlebotomized. Then it was immediately subjected to an abdominal operation to take out its right and left vas deferens. Sperm clogged in the ducts was forced out with a pincette in Ringer's solution and both ends of the two ducts were united with a string to form a ring. Then it was stimulated electrically (0.1 Hz, 1 ms, 90 V) in the same manner as described in (A).
Hughes H. W., Kosterlitz H. W., Leslie F. M.: Br. J. Pharmacol., 53, 371 (1975).

[1] = test system: guinea pig longitudinal muscle of ileum; experiment: Assay with guinea pig longitudinal muscle of ileum (inhibition of electrically stimulated contraction); format: tissue-based; details: Cavia porcellus, concentration required to decrease electrically stimulated contraction to 50%, read-out: IC50, Method (A)
Method: (A) Assay with guinea pig longitudinal muscle of ileum
This assay was carried out according to the method reported by H. W. Kosterlitz et al. A mature guinea pig was sacrificed by cutting its jugular and subjected to an abdominal operation to take out its ileum as a piece of 40 to 50 cm in length from a region 15 to 20 cm apart from the ileocecal region. Then it was immediately introduced into Ringer's solution and cut into 10 cm portions. The longitudinal muscle was peeled off from each piece by using a scalpel and an applicator, wound with a string and suspended in an isothermal glass cell of 6 ml in volume. Subsequently it was stimulated electrically (0.1 Hz, 0.5 ms, 80-90 V) with platinum electrodes fitted at the upper and lower sides of the cell to record the resulting contractions through a transducer.
H. W. Kosterlitz, A. A. Waterfield: Annu. Rev. Pharmacol., 15, 29 (1975).

CN1CC[C@]23c4c5ccc(O)c4O[C@H]2[C@@H](O)C=C[C@H]3[C@H]1C5 [Morphine]
IC50 (mouse vas deferens): 1070 ± 489 nM | IC50 [1]: 94 ± 36 nM
